PubChem BioAssay AID1508597 – Cure First, 2020

- Screen: 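Survival screen with siRNA in ovarian cancer cells derived from patients, with or without rucaparib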 (primary screen)
- System: human ovarian carcinoma lines grown from tumours: OCI-P5x (papillary serous) and OCI-C5x (clear cell)
- Reagents: siRNA pool against human genes, 1.25 pmol siRNA per well
- Time to read-out: 72 h or 96 h, depending on the cell culture
- Conditions: rucaparib 20 µM (about IC30) or vehicle, present until read-out
- Read-out: 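ATP luminescence measured at 72 or 96 h according to the culture, then normalised and expressed as percent viability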
- Scale: viability, normalised: higher = more viable cells remaining
- Rule for the call: 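Active when normalised viability falls below 80 percent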
- Meaning of the calls: active = viability under 80%; inactive = viability 80% or more
In all, the deposit lists about 2,100 reagents; shown is a random part of them. 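Calls flag viability under 80% in either arm, not effects specific to rucaparib; the reference for percent is not stated.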 The numbers tell different reagents against one gene apart. Some reagents were tested in more than one well and are listed for each. Not stated in the record: the 100% reference.

gene symbol | reagent | rucaparib or vehicle | cell line | technical replicate | viability, normalised (%) | outcome
CDK12 (cyclin dependent kinase 12) | 1 | Rucaparib | OCI-C5x (clear cell) | 1 | 47.6 | active
CDK12 (cyclin dependent kinase 12) | 1 | Rucaparib | OCI-C5x (clear cell) | 2 | 44.8 | active
CDK12 (cyclin dependent kinase 12) | 1 | Rucaparib | OCI-C5x (clear cell) | 2 | 56 | active
CDK12 (cyclin dependent kinase 12) | 1 | Rucaparib | OCI-C5x (clear cell) | 3 | 60.5 | active
CDK12 (cyclin dependent kinase 12) | 1 | Rucaparib | OCI-C5x (clear cell) | 3 | 53.9 | active
CDK12 (cyclin dependent kinase 12) | 1 | Rucaparib | OCI-P5x (serous) | 1 | 53.4 | active
CDK12 (cyclin dependent kinase 12) | 1 | Rucaparib | OCI-P5x (serous) | 1 | 57.5 | active
CDK12 (cyclin dependent kinase 12) | 1 | Rucaparib | OCI-P5x (serous) | 2 | 46.2 | active
CDK12 (cyclin dependent kinase 12) | 1 | Rucaparib | OCI-P5x (serous) | 2 | 66.9 | active
CDK12 (cyclin dependent kinase 12) | 1 | Rucaparib | OCI-P5x (serous) | 3 | 57.8 | active
CDK12 (cyclin dependent kinase 12) | 1 | Rucaparib | OCI-P5x (serous) | 3 | 69.5 | active
CDK12 (cyclin dependent kinase 12) | 1 | Vehicle | OCI-C5x (clear cell) | 1 | 55.9 | active
CDK12 (cyclin dependent kinase 12) | 1 | Vehicle | OCI-C5x (clear cell) | 1 | 54.7 | active
CDK12 (cyclin dependent kinase 12) | 1 | Vehicle | OCI-C5x (clear cell) | 2 | 50.1 | active
CDK12 (cyclin dependent kinase 12) | 1 | Vehicle | OCI-C5x (clear cell) | 2 | 45.9 | active
CDK12 (cyclin dependent kinase 12) | 1 | Vehicle | OCI-C5x (clear cell) | 3 | 46.6 | active
CDK12 (cyclin dependent kinase 12) | 1 | Vehicle | OCI-C5x (clear cell) | 3 | 40.6 | active
CDK12 (cyclin dependent kinase 12) | 1 | Vehicle | OCI-P5x (serous) | 1 | 78 | active
CDK12 (cyclin dependent kinase 12) | 1 | Vehicle | OCI-P5x (serous) | 1 | 49.1 | active
CDK12 (cyclin dependent kinase 12) | 1 | Vehicle | OCI-P5x (serous) | 2 | 81.9 | inactive
CDK12 (cyclin dependent kinase 12) | 1 | Vehicle | OCI-P5x (serous) | 2 | 57.4 | active
CDK12 (cyclin dependent kinase 12) | 1 | Vehicle | OCI-P5x (serous) | 3 | 43.7 | active
CDK12 (cyclin dependent kinase 12) | 1 | Vehicle | OCI-P5x (serous) | 3 | 77.9 | active
CDK12 (cyclin dependent kinase 12) | 2 | Rucaparib | OCI-C5x (clear cell) | 1 | 51.8 | active
CDK12 (cyclin dependent kinase 12) | 2 | Rucaparib | OCI-C5x (clear cell) | 2 | 50.9 | active
CDK12 (cyclin dependent kinase 12) | 2 | Rucaparib | OCI-C5x (clear cell) | 3 | 34 | active
CDK12 (cyclin dependent kinase 12) | 2 | Rucaparib | OCI-P5x (serous) | 1 | 89.8 | inactive
CDK12 (cyclin dependent kinase 12) | 2 | Rucaparib | OCI-P5x (serous) | 2 | 84.7 | inactive
CDK12 (cyclin dependent kinase 12) | 2 | Rucaparib | OCI-P5x (serous) | 3 | 70.8 | active
CDK12 (cyclin dependent kinase 12) | 2 | Vehicle | OCI-C5x (clear cell) | 1 | 56.9 | active
CDK12 (cyclin dependent kinase 12) | 2 | Vehicle | OCI-C5x (clear cell) | 2 | 75.7 | active
CDK12 (cyclin dependent kinase 12) | 2 | Vehicle | OCI-C5x (clear cell) | 3 | 51.1 | active
CDK12 (cyclin dependent kinase 12) | 2 | Vehicle | OCI-P5x (serous) | 1 | 77.8 | active
CDK12 (cyclin dependent kinase 12) | 2 | Vehicle | OCI-P5x (serous) | 2 | 64.2 | active
CDK12 (cyclin dependent kinase 12) | 2 | Vehicle | OCI-P5x (serous) | 3 | 72.7 | active
